# No constants are given. Whether binding was seen depends on the method and setting. Some binding calls cover weakened binding; strength is not graded here.
# T1: VARP-ANK1 (ANK1-domain of VARP) (UniProt Q96NW4)
# T1 sequence: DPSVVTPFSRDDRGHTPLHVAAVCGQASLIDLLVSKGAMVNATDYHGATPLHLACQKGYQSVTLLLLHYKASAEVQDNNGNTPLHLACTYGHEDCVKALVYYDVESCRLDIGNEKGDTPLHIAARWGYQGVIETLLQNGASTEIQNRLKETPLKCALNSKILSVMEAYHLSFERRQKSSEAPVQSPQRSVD
# Legend:
# [1] = molecular target: T1, VARP-ANK1 (ANK1-domain of VARP); test: SEC; analytical SEC (aSEC), Rab32 loaded with GppNHp (90%); analysis as for the GDP state (50 μM each, 1 h at 15°C), 280 nm, peaks deconvolved; both purified
# [2] = molecular target: T1, VARP-ANK1 (ANK1-domain of VARP); test: SEC; analytical SEC (aSEC), Rab32 loaded with GDP (98%); 50 μM Rab32 equilibrated with 50 μM VARP-ANK1 for 1 h at 15°C, 50 μL separated, 280 nm, peaks deconvolved; single proteins run as reference; both purified
Molecule,binding [1],binding [2]
Rab32_(cleaved) (Rab32 cleaved by GtgE between G59 and V60) (from UniProt Q13637 1-59; Q13637 60-225) (complex),no binding (tested: 50 μM each),no binding (tested: 50 μM each)
"Rab32 (uncleaved, non-modified) (protein, UniProt Q13637 1-225) MAGGGAGDPGLGAAAAPAPETREHLFKVLVIGELGVGKTSIIKRYVHQLFSQHYRATIGVDFALKVLNWDSRTLVRLQLWDIAGQERFGNMTRVYYKEAVGAFVVFDISRSSTFEAVLKWKSDLDSKVHLPNGSPIPAVLLANKCDQNKDSSQSPSQVDQFCKEHGFAGWFETSAKDNINIEEAARFLVEKILVNHQSFPNEENDVDKIKLDQETLRAENKSQCC",binds,no binding (condition: Rab32 loaded with GDP (50 μM each))

# Source: PMC7779776
